According to PubChem BioAssay AID445 (National Center for Advancing Translational Sciences (NCATS), 2006):
The other results are listed elsewhere or left out. Further columns of the screen follow, without active or inactive calls. Compounds called inactive in the main read-out are mostly missing here. Potencies come from curve fits of mixed quality, noted in brackets.

Test: IkB Signaling
Settings: ABC-DLBCL IkBa-CBG/CBR dual luciferase ratio (green luciferase fused to IkBa over red control in OCI-Ly3 lymphoma cells), 4 h
Summary of the method: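 Luminescence ratio of IκBα-fused green versus native red beetle luciferase in OCI-Ly3 cells, 4 h post-doxycycline with compound; red signal alone, scaled from basal (0%) to zero light (-100%), flagged nonspecific or cytotoxic effects.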

[1] = measured here: control luc red channel unless noted
[2] = measured here: IkB-luc green channel
[3] = measured here: control luc red channel

Question: Which AC50 [1] does the source give for `COc1ccc(CCNC(=O)CN2C(=O)COc3ccccc32)cc1OC` here?
Answer: 0.0126 µM [falling, full curve, poor fit]

Question: For `COc1ccccc1N1CCN(c2nc3ccccc3n3nnnc23)CC1`, which AC50 [1] is on record?
Answer: 0.398 µM [falling, full curve]

Question: For `Cc1cc(C)cc(OCC(=O)NCC2(N3CCOCC3)CCCCC2)c1`, which AC50 [1] is on record?
Answer: 39.8 µM [falling, single point]

Question: Which AC50 [1] does the source give for `c1cncc(-c2nnc(SCc3cccc4ccccc34)o2)c1` here?
Answer: 6.31 µM [falling, single point]

Question: With `Cc1ccc(S(=O)(=O)Nc2cc3c(C(=O)OCc4ccccc4)c(C)oc3c3ccccc23)cc1` as the molecule, how does the AC50 [1] read?
Answer: 15.8 µM [falling, single point]

Question: Which AC50 [1] does the source give for `Cc1ccc(CSc2ncccc2C(=O)O)cc1` here?
Answer: 5.01 µM [rising, full curve]

Question: With `COc1cccc(-c2nc(CS(=O)(=O)CC(=O)NCCCc3ccccc3)c(C)o2)c1` as the molecule, how does the AC50 [1] read?
Answer: 39.8 µM [falling, single point]

Question: For `CCN(CC)c1ccc(NC(=O)c2sc3nc(-c4ccccc4)cn3c2C)cc1`, which AC50 [1] is on record?
Answer: 3.98 µM [falling, full curve]

Question: With `CCOC(=O)c1cccc(NC(=O)NCc2ccc3c(c2)CCN3C(=O)CC)c1` as the molecule, how does the AC50 [1] read?
Answer: 10 µM [falling, partial curve]

Question: With `Cc1nc(-c2ccc(F)cc2)sc1CCNC(=O)C(=O)Nc1ccc2c(c1)OCO2` as the molecule, how does the AC50 [1] read?
Answer: 15.8 µM [rising, partial curve]

Question: For `CCOC(=O)N1CCC(Nc2nc3ccccc3n3nnnc23)CC1`, which AC50 [1] is on record?
Answer: 0.501 µM [falling, full curve]

Question: For `Cn1cc(SCC(=O)Nc2nc3ccccc3s2)c2ccccc21`, which AC50 [1] is on record?
Answer: 10 µM [falling, partial curve]

Question: For `CCCN(C(=O)NCc1noc2ccc(C)cc12)c1ccc(Cl)c(Cl)c1`, which AC50 [1] is on record?
Answer: 15.8 µM [falling, partial curve]

Question: With `Cc1ccc(Cl)cc1NC(=O)C1CCCN(S(=O)(=O)c2c(C)noc2/C=C/N(C)C)C1` (stereo not drawn) as the molecule, how does the AC50 [1] read?
Answer: 25.1 µM [falling, partial curve]

Question: For `O=C(Nc1ccccc1C(=O)OCc1cc(=O)n2ccsc2n1)c1cccc(F)c1`, which AC50 [1] is on record?
Answer: 3.98 µM [rising, partial curve]

Question: For `Cc1ccc2nc(/C(C#N)=C/c3ccc(-c4ccc(F)cc4F)o3)[nH]c2c1`, which AC50 [1] is on record?
Answer: 6.31 µM [falling, full curve]

Question: With `Cc1c(CCC(=O)NCCc2ccccc2F)c(=O)oc2cc(O)ccc12` as the molecule, how does the AC50 [1] read?
Answer: 39.8 µM [falling, single point]

Question: Which AC50 [1] does the source give for `O=C(c1ccc(CSc2nc3ccncc3n2Cc2ccccc2F)cc1)N1CCCCC1` here?
Answer: 31.6 µM [falling, partial curve]

Question: For `CCOc1ccccc1Nc1sc(C(=O)c2ccc(Cl)cc2)c(N)c1C#N`, which AC50 [1] is on record?
Answer: 12.6 µM [rising, partial curve]

Question: Which AC50 [1] does the source give for `O=C(NCCc1ccccc1)c1cc(-c2ccccc2)nc2n[nH]c(-c3ccccc3)c12` here?
Answer: 0.794 µM [falling, full curve]

Question: With `C=CCn1c(C#N)c(N)sc1=N` as the molecule, how does the AC50 [1] read?
Answer: 25.1 µM [falling, partial curve]

Question: Which AC50 [1] does the source give for `CN(C)c1ccc(/C=C(\C#N)c2nc3ccccc3c(=O)[nH]2)cc1` here?
Answer: 6.31 µM [falling, full curve]

Question: For `COCc1cc(=O)n2c(-c3ccc(C)cc3)n[nH]c2n1`, which AC50 [1] is on record?
Answer: 5.01 µM [falling, full curve]

Question: With `CCC(C)n1c(=N)c(S(=O)(=O)c2ccccc2)cc2c(=O)n3ccccc3nc21` (stereo not drawn) as the molecule, how does the AC50 [1] read?
Answer: 0.2 µM [rising, full curve]

Question: Which AC50 [1] does the source give for `O=C(CSc1nc(O)cc(=O)n1-c1ccccc1)N1CCCCC1` here?
Answer: 10 µM [falling, partial curve]

Question: Which AC50 [1] does the source give for `COc1cc2nc(SCc3ccc(F)cc3)n3nc(CCn4c(C)nc5ccccc54)nc3c2cc1OC` here?
Answer: 31.6 µM [rising, partial curve] [measured here: IkB-luc green channel]

Question: Which AC50 [1] does the source give for `C=CCn1c(SCC(=O)N2CCN(c3ccc(F)cc3)CC2)nnc1-c1ccco1` here?
Answer: 20 µM [falling, partial curve]

Question: With `CCC(Sc1nc(C)cc(=O)[nH]1)C(=O)Nc1sc2c(c1C#N)CCCC2` (stereo not drawn) as the molecule, how does the AC50 [1] read?
Answer: 10 µM [falling, partial curve]

Question: For `CCOC(=O)c1cnc(-n2nc(C)cc2C)nc1NC(C)c1ccccc1` (stereo not drawn), which AC50 [1] is on record?
Answer: 12.6 µM [falling, partial curve]

Question: Which AC50 [1] does the source give for `COc1ccc(CCCc2nnc(SCC(=O)Nc3ccc(C)c(C)c3)o2)cc1` here?
Answer: 20 µM [falling, partial curve]

Question: For `CC(C)NS(=O)(=O)c1ccc(OCC(=O)N2CCN(c3ccccc3F)CC2)cc1`, which AC50 [1] is on record?
Answer: 31.6 µM [falling, single point]

Question: Which AC50 [1] does the source give for `NC(=O)c1ccsc1NC(=O)COc1ccccc1` here?
Answer: 7.94 µM [falling, partial curve]

Question: Which AC50 [1] does the source give for `O=C(c1ccc(CS(=O)c2ccccc2Cl)o1)N1CCN(c2ccccc2F)CC1` (stereo not drawn) here?
Answer: 31.6 µM [falling, single point]

Question: For `COc1cccc(C(=O)N(Cc2cccc(Cl)c2)Cc2ccco2)c1`, which AC50 [1] is on record?
Answer: 12.6 µM [falling, partial curve]

Question: Which AC50 [1] does the source give for `c1ccc2c(c1)CCCN2c1nc2ccccc2n2cnnc12` here?
Answer: 20 µM [falling, partial curve]

Question: Which AC50 [1] does the source give for `CC(C)(C)c1ccc(OCC(=O)Nc2c(C(=O)c3ccc(F)cc3)oc3ccccc23)cc1` here?
Answer: 20 µM [rising, single point]

Question: With `N#CC1=C(N)SC(N)=C(C#N)C1CCc1ccccc1` as the molecule, how does the AC50 [2] read?
Answer: 25.1 µM [falling, single point]

Question: And the AC50 [3]?
Answer: 10 µM [falling, partial curve]

Question: With `COc1cc(C(=O)NCCSc2c(-c3ccccc3)[nH]c3ccccc23)cc(OC)c1OC` as the molecule, how does the AC50 [1] read?
Answer: 3.16 µM [falling, full curve]

Question: Which AC50 [1] does the source give for `COc1ccc2[nH]cc(CCNc3nc(-c4cccc(NS(C)(=O)=O)c4)nc4ccccc34)c2c1` here?
Answer: 2.51 µM [falling, partial curve] [measured here: IkB-luc green channel]

Question: For `COc1ccc(N2CCN(C(c3cccs3)C(C)NC(=O)c3ccco3)CC2)cc1` (stereo not drawn), which AC50 [1] is on record?
Answer: 31.6 µM [falling, partial curve]

Question: With `C=CC(=O)OCCOCCOC(=O)C=C` as the molecule, how does the AC50 [2] read?
Answer: 3.98 µM [rising, full curve]

Question: What about the AC50 [3] of the same molecule?
Answer: 20 µM [falling, partial curve]
